Drawing on patent US6403765B1, “Truncated Apaf-1 and methods of use thereof” (Thomas Jefferson University, priority 1998, dated 2002), this text covers binding for 4 substances.

Chains of the proteins cited; added tags and fusions are not shown. Lines headed by an entry give the natural chain unless they say otherwise; changes in a name come on top.
UniProt Q07817: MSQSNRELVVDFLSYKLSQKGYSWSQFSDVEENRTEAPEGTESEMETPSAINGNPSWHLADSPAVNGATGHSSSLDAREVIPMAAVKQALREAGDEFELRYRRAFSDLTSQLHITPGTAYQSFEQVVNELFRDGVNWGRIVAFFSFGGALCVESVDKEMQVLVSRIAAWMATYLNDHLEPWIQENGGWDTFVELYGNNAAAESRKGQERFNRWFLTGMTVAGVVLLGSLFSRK
UniProt O14727: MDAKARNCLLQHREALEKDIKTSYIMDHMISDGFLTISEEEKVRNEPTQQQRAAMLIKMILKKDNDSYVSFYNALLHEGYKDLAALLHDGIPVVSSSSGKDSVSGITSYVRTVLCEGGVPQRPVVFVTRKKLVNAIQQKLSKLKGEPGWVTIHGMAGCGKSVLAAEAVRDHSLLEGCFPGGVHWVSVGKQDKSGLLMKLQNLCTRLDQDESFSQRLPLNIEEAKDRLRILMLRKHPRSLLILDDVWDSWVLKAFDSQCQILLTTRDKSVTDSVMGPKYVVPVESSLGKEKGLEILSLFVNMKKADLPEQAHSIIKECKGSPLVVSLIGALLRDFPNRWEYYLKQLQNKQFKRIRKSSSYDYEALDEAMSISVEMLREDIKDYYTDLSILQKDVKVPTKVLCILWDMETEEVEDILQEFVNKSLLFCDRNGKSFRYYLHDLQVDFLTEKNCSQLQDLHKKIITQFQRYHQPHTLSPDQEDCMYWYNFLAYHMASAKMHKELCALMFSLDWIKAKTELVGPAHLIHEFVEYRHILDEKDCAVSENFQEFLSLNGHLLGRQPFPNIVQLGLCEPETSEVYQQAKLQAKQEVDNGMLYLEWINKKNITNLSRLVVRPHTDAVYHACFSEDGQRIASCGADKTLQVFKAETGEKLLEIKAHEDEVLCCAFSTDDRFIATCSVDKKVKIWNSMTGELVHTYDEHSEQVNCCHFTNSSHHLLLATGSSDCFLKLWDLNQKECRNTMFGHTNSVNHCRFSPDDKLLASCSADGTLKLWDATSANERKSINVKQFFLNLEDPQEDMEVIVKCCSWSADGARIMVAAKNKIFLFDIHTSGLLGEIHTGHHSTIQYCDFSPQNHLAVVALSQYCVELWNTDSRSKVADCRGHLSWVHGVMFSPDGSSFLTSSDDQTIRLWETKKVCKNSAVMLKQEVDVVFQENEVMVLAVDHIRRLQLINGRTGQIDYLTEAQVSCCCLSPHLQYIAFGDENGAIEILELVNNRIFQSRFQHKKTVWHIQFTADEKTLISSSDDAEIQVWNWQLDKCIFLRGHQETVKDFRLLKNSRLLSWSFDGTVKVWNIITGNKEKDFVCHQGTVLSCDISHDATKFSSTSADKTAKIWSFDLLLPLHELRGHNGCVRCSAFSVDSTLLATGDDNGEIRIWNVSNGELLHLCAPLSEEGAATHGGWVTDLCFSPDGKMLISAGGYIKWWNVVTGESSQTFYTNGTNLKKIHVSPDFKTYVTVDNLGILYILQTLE

What all share (assay): co-immunoprecipitation from co-transfected 293 cells: anti-Flag IP, anti-T7 immunoblot
For orientation: In western blotting, separated proteins are transferred to a membrane and probed.

Assay [1] has as its target T1, T7-tagged Bcl-xL (UniProt Q07817 1-233).
T1 construct: Expressed in co-transfected 293 cells
How it is done: The immunoprecipitates were analyzed by Western blotting with an anti-T7 antibody.
After 36 hours, extracts were prepared and immunoprecipitated with a monoclonal antibody to the Flag epitope. The immunoprecipitates (upper panel) were analyzed by SDS-PAGE and immunoblotted with a horseradish peroxides-conjugated T7 antibody.
In vivo interaction experiments between Apaf-1 variants and Bcl-x_L were performed. […] After 36 hours, extracts were prepared and immunoprecipitated with a monoclonal antibody to the Flag epitope. The immunoprecipitates (FIG. 16, upper panel) were analyzed by SDS-PAGE and immunoblotted with a horseradish peroxidase-conjugated T7 antibody.

For assay [2], the target named is Flag-tagged Apaf-1 (full length) (human) (UniProt O14727).
Assay [3] has as its target Flag-tagged Apaf-530 (human) (UniProt O14727).
Assay [4] addresses Flag-tagged Apaf-530ΔCARD (human) (UniProt O14727).

No constants are given. Whether binding was seen depends on the method and setting. In cells and extracts the contact can be indirect. Some entries that bind do so weakly or less than the wild type.

For “Flag-tagged Apaf-1 (full length) (from UniProt O14727 1-1248)”, the binding result in assay [1] is reported as “binds”. Still for that read-out and setting: under “Flag-tagged Apaf-530 (from UniProt O14727 1-541)” stands “binds”; under “Flag-tagged Apaf-530ΔCARD (from UniProt O14727 110-541)”, “binds”.

“T7-tagged Apaf-530 (from UniProt O14727 1-541)”: the binding result in assay [2], in assay [3] and in assay [4] was “binds” each time.
